The experiment concerns the target T1, GFP-MED19a (Arabidopsis) (UniProt Q9FMP0).
T1 sequence: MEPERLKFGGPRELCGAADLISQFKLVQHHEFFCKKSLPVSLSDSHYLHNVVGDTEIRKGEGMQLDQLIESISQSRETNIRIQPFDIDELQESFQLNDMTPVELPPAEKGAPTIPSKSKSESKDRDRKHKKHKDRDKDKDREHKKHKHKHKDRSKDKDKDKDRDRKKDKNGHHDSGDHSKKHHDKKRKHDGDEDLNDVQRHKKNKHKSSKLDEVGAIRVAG
Kind of experiment: co-IP; co-immunoprecipitation analysis between GFP-MED19a and MED6 and MED7, read by immunoblot. A general note: In western blotting, separated proteins are transferred to a membrane and probed.

These are yes or no findings as the source states them, for the method shown. In cells and extracts the contact can be indirect. Some entries that bind do so weakly or less than the wild type. Sequences can lack the tags named with a protein.

B1: MED6 (protein, UniProt F4IXJ7 1-298)
chain: MDSSLLSAATADTFNGNAADQIPPPLQPPGTDMTGISFRDQLWINSYPLDRNYIFDYFALSPFYDTTCNNEILRRRSIHPLDLSHLSKMTGLEYMLTDATEPNLFVFRKQKRDGPEKVTPMLTYYILDGSIYQAPQLCSVFAARVSRTIYNISKAFTDAASKLETIRQDLQVCLVAIVLSLSVNLGSYFLLIFKLMANGEQVYGFNKFLFDTENQNEPAESKPASETVDLKEMKRVDVILTSLYRKLAPPPPPPPFPEGYVSQEALGEKEELGTQGGESQPPQVDPIIDQGPAKRMKF
For B1, the binding result is “binds”.
